In publication PMC8707168, “PL1 Peptide Engages Acidic Surfaces on Tumor-Associated Fibronectin and Tenascin Isoforms to Trigger Cellular Uptake” (Pharmaceutics, 2021):

Columns and labels:
[1] = molecular target: Fibronectin Extra Domain B mutant D68N D70N, hexahistidine-tagged (human); assay: binding of fluorescent peptide nanoworms to protein-coated beads; His-tagged proteins (60 µg/40 µL beads) on Ni-NTA magnetic agarose beads; FAM-labelled PL1-NW 80 µg/reaction in PBS, 1% BSA, 0.1% NP40; 6 washes; eluted with 500 mM imidazole; fluorescence 485/535 nm; percent of WT after baseline correction with control protein P32; both purified
[2] = molecular target: Fibronectin Extra Domain B mutant E42Q D68N E64Q, hexahistidine-tagged (human); assay: as above

B1: PL1-functionalized iron oxide nanoworms (FAM-labelled PL1 peptide on NWs) (peptide)
peptide: PPRRGLIKLKTS
modifications: FAM fluorophore label; peptide coated on iron oxide nanoworms
- binding [1]: binds
- binding [2]: binds

No constants are given. Whether binding was seen depends on the method and setting. Binding calls can cover weak binding; strength is not graded here.
